# Measurements as given in PubChem BioAssay AID540256 (National Center for Advancing Translational Sciences (NCATS), 2011).
# Among all 300,000 compounds or so, about 3,700 (1.2%) were called active. This list was built around the results that the source calls inconclusive (neither active nor inactive); the mix of calls is not that of the screen. Calls follow the shape of the full dose curve; tested in HEK293 cells. Potencies beside an inconclusive call are fits to weak or partial responses and may not hold up.
# Assay: qHTS for Inhibitors of binding or entry into cells for Lassa Virus; also: nearly all actives have a fitted effect of over 50% in size
# Settings: Lassa virus pseudotype entry inhibition, cell reporter; activity change, negative = inhibition: at 37.9 µM (top of the series) unless noted
# % is scaled to controls: 0 for no effect and ±100 for the full control effect; potency is read from the fitted curve at half-maximal effect.
Compound,Potency,"activity change, negative = inhibition"
CC(NC(=O)Nc1ccc(F)cc1F)c1ccc2c(c1)OCO2 (centres undefined),inactive,–
CCC(=O)Nc1sc(C(=O)OC)c(C)c1C(=O)OC,inactive,–
COc1ccc(Nc2nnc(SCC(=O)NC3CCS(=O)(=O)C3)s2)cc1 (centres undefined),"inconclusive: 35.5 µM [inhibitor, single point]",–
O=C(CN1C(=O)NC2(CCCC2)C1=O)Nc1cc(S(=O)(=O)N2CCCCC2)ccc1Cl,inactive,–
COc1ccc(N(CC(=O)NC2CCCC2)S(=O)(=O)c2ccc(NC(C)=O)cc2)cc1,"inconclusive: 14.1 µM [inhibitor, partial curve, poor fit]",–
CCCN(CCC)S(=O)(=O)c1ccc(C(=O)N2CCC(=O)c3ccccc32)cc1,"inconclusive: 10 µM [inhibitor, single point]",–
CS(=O)(=O)Nc1ccc(N=Cc2c(O)[nH]c3ccccc23)cc1,"inconclusive: 3.15 µM [activator, full curve, poor fit]",–
COc1ccccc1CNc1ccc(N2CCCCC2)cc1,"inconclusive: 29.1 µM [inhibitor, single point]",–
COc1cc2c(cc1OC)C(c1ccc(-c3ccc(Cl)c(Cl)c3)o1)=NCC2,active: 5.8 µM,–
CCCCOc1ccc(C(=O)N/N=C/c2ccc(OCCN3CCCCC3)c(OC)c2)cc1,"inconclusive: 11.2 µM [inhibitor, single point]",–
CC(C)CC(=O)N1CCN(c2ccc(NC(=O)c3ccco3)cc2)CC1,inactive,–
CCc1ccc(-c2nc(CN3CCCC(C(=O)NCc4ccccc4Cl)C3)c(C)o2)cc1 (centres undefined),"inconclusive: 35.5 µM [inhibitor, single point]",–
CCOc1ccc(N(C(C)C(=O)N2CCCC2)S(C)(=O)=O)cc1 (centres undefined),"inconclusive: 1.26 µM [inhibitor, single point]",–
COc1cc2c(cc1OC)CN(S(=O)(=O)c1cccs1)CC2,inactive,–
COc1ccc(C2c3ccc(O)cc3Oc3ncn4nc(-c5ccncc5)nc4c32)cc1OC (centres undefined),"inconclusive: 5.01 µM [inhibitor, full curve, poor fit]",–
COc1cc(/C=C2\SC(=Nc3ccccc3OC)NC2=O)ccc1O,"inconclusive: 6.31 µM [inhibitor, single point]",–
CCOC(=O)C1=C(CC)OC(N)=C(C#N)C1c1cc(OC)ccc1OC (centres undefined),inactive,–
CCOC(=O)Nc1nc(-c2ccc(F)cc2F)cs1,"inconclusive: 32.6 µM [inhibitor, single point]",–
CC(C)(Oc1ccc(Cl)cc1)C(=O)NCC1CCCO1 (centres undefined),inactive,–
O=P(Oc1ccccc1)(Oc1ccccc1)C(Nc1ccccc1)c1ccccc1 (centres undefined),"inconclusive: 12.6 µM [inhibitor, partial curve, poor fit]",–
COC(=O)c1ccc(C2/C(=C(\O)c3ccc4c(c3)OCCO4)C(=O)C(=O)N2CCCN(C)C)cc1 (centres undefined),"inconclusive: 0.891 µM [inhibitor, partial curve, poor fit]",–
CCc1ccccc1-n1nnc(-c2nc(-c3ccccc3F)no2)c1C,–,inconclusive: 24.5% [activator] [at 46.1 µM]

Compound,Potency,"activity change, negative = inhibition"
COc1ccc2c(c1)nc(SCC(O)c1ccccc1)n2C (centres undefined),"inconclusive: 31.6 µM [activator, single point]",–
Cn1c(=O)n(C)c2cc(NS(=O)(=O)c3ccc(Cl)cc3)c(NCc3ccccc3)cc21,"inconclusive: 31.6 µM [activator, single point]",–
Nc1scc2c(C(=O)N/N=C/c3ccc(Cl)cc3)nn(-c3ccccc3)c(=O)c12,"inconclusive: 25.9 µM [inhibitor, single point]",–
CC(C)(C)c1ccc(Cn2nnc3c(=O)[nH]c(C4CCN(C(=O)c5ccco5)CC4)nc32)cc1,"inconclusive: 0.794 µM [inhibitor, single point]",–
O=C(Nc1ccccc1Cl)c1cccc(COc2cc(Cl)ccc2Cl)c1,"inconclusive: 31.6 µM [inhibitor, single point]",–
CC(C)(C)c1ccc(S(=O)(=O)NCC(=O)Nc2ccc(-c3nc4ccccc4s3)cc2)cc1,inactive,–
Cc1ccc(OCC(O)Cn2c3ccccc3c3ccccc32)cc1 (centres undefined),"inconclusive: 29.1 µM [inhibitor, single point]",–
COC(=O)[C@@H](NC(=O)c1cc(COc2cncc(Cl)c2)on1)c1ccccc1,inactive,–
CN1C(=O)C(c2nnc(Nc3cccc4ccccc34)s2)C2CC1(C)Oc1ccccc12 (centres undefined),"inconclusive: 35.5 µM [inhibitor, single point]",–
O=C(CSC1CC(=O)N(c2ccc(C(=O)O)cc2)C1=O)Nc1ccc(Cl)cc1 (centres undefined),inactive,–
CCCn1c(NC(=O)c2ccc([N+](=O)[O-])o2)nc2ccccc21,inactive,–
NS(=O)(=O)c1ccc(NCc2ccccc2OCc2ccc(F)cc2)cc1,inactive,–
Cc1cc(NC(=O)c2ccccc2F)nc2c1c(=O)oc1ccccc12,inactive,–
Cc1ccc(OCc2nnc(SCC(=O)NC3CCCCC3)n2C)cc1,"inconclusive: 0.708 µM [activator, partial curve, poor fit]",–
CC1CCCN(c2c([N+](=O)[O-])c(=O)oc3ccccc23)C1 (centres undefined),"inconclusive: 1.3 µM [inhibitor, full curve, poor fit]",–
Cc1cc(C)nc(Sc2ccc([N+](=O)[O-])cc2[N+](=O)[O-])n1,"inconclusive: 35.5 µM [inhibitor, single point]",–
CC12CCC(C(=O)Nc3ccccc3Cl)(C(Br)C1=O)C2(C)C (centres undefined),"inconclusive: 6.51 µM [inhibitor, single point]",–
CCN(CC)C(=O)Oc1ccccc1NC(C)=O,inactive,–
c1ccc(C(c2ccccc2)N2CCN(Cc3nnnn3C3CCCCC3)CC2)cc1,active: 11.6 µM,–
COCCCNc1oc(-c2ccc(COc3ccccc3C)o2)nc1C#N,inactive,–
Cc1ccc(Oc2ccc(S(=O)(=O)N3CCOCC3)cc2C(N)=O)c(-n2nc3ccccc3n2)c1,"inconclusive: 0.355 µM [inhibitor, full curve, poor fit]",–
CC(C)(C)CC(=O)Nc1ccccc1N1CCN(c2ccccc2)CC1,"inconclusive: 35.5 µM [inhibitor, partial curve, poor fit]",–

# A portion taken from the entries so far, for reference:
Compound,Potency,"activity change, negative = inhibition"
COc1ccccc1CNc1ccc(N2CCCCC2)cc1,"inconclusive: 29.1 µM [inhibitor, single point]",–
COc1cc2c(cc1OC)C(c1ccc(-c3ccc(Cl)c(Cl)c3)o1)=NCC2,active: 5.8 µM,–
